Experimental data: publication PMC12219270
No constants are given. Whether binding was seen depends on the method and setting. Binding seen in cells or lysates may run through a third protein. Some entries that bind do so weakly or less than the wild type.

Chains of the proteins cited; added tags and fusions are not shown. Lines headed by an entry give the natural chain unless they say otherwise; changes in a name come on top. A line that says so, or that is headed by a name, gives the form on record, which may keep a tag or linker. Residues count along the entry.
UniProt P12004: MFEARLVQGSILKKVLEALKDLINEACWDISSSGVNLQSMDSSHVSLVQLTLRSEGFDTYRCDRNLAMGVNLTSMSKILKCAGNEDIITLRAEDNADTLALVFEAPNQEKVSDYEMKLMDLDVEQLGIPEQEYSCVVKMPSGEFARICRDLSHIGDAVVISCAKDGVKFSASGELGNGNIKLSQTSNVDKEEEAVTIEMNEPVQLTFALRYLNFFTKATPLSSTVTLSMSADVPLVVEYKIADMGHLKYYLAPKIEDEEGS
UniProt P10275: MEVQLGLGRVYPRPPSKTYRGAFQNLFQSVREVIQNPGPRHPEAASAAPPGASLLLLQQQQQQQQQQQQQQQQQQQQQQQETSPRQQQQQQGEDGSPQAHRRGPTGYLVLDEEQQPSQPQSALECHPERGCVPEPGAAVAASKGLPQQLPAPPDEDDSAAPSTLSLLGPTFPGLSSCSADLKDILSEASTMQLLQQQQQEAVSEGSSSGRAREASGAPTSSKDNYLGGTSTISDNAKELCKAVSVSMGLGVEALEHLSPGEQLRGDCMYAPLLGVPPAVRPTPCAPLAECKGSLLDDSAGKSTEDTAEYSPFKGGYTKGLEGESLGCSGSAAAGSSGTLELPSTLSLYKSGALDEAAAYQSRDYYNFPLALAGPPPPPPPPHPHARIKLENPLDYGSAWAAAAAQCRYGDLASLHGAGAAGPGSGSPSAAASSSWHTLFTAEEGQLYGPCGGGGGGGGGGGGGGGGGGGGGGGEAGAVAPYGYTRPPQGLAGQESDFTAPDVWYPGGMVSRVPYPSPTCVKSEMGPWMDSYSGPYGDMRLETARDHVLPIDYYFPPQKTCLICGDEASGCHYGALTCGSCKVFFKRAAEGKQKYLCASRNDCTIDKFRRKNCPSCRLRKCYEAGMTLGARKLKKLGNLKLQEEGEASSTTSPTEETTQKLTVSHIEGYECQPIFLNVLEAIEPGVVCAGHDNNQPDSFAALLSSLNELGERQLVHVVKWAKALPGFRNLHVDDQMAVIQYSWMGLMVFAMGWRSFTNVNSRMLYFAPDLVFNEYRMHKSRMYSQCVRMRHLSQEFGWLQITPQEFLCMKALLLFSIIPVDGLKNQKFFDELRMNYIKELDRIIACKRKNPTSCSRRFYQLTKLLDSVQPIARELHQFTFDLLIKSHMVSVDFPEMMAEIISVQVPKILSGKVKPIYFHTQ
HA-AR-V7 (containing both the NTD and DBD, AR1-628 aa): residues 1-628 of P10275
HA-AR-V7-PIP4m (HA-AR-V7 with deletion of PIP-box4) (P10275-1, form named): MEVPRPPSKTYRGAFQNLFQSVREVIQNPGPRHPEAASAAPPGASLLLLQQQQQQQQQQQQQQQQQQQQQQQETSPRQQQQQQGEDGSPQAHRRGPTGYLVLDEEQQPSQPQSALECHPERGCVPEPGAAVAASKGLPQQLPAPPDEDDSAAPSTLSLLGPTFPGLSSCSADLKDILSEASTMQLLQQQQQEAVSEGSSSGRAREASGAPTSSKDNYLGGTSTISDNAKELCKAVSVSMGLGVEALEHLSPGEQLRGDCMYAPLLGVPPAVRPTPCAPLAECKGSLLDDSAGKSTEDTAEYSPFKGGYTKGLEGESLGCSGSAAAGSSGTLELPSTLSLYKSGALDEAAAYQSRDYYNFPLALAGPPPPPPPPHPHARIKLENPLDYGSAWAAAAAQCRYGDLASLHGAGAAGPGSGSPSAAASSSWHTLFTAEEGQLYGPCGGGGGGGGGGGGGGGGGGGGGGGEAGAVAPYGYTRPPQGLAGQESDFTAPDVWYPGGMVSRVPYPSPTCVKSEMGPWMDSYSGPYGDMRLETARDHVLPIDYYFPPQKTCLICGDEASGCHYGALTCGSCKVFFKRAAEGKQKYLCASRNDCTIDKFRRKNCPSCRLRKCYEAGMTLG

Target: GST-PCNA (proliferating cell nuclear antigen) (UniProt P12004)
Assay: pull-down; GST-PCNA protein (5-10 ug) incubated with 1 mg of cell extract in modified RIPA buffer (PBS, 0.1% NP-40, 0.1% sodium deoxycholate, 50 mM NaCl, 1 mM EDTA, 1 mM DTT) at 4 C overnight; immunoblot with HA-tag or AR(441) antibody; cells without or with dihydrotestosterone (10^-8 M) overnight; 22Rv1 extracts also without or with 30 uM T2AA; only the target purified

| binding | Substance |
| --- | --- |
| binds | AR-FL (full-length androgen receptor, expression vector without HA tag) (from UniProt P10275 1-920) |
| binds | HA-AR-V7-PIP4m (HA-AR-V7 with deletion of PIP-box4) (from UniProt P10275-1 1-628) (domain or fragment) |
| binds | HA-AR-NTD (AR N-terminal domain, AR1-539aa) (from UniProt P10275 1-539) (domain or fragment) |
| binds | HA-AR-V7 (containing both the NTD and DBD, AR1-628 aa) (from UniProt P10275-1 1-628) (domain or fragment) |
